{"sequences": {"note": "Sequences of proteins named here, by UniProt entry; tags and fusion partners are left off. A change or cut given only in a name is not applied to a line headed by its entry. A line that says so, or that is headed by a name, gives the form on record, which may keep a tag or linker.", "UniProt P61586": "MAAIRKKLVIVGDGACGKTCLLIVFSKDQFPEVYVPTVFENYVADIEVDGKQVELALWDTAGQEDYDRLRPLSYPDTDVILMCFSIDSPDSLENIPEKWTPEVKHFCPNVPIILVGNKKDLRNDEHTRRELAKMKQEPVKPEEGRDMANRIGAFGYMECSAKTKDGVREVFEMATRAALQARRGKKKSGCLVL", "SNAP-tagged RhoA N19 (inactive form of RhoA) (P61586, form named)": "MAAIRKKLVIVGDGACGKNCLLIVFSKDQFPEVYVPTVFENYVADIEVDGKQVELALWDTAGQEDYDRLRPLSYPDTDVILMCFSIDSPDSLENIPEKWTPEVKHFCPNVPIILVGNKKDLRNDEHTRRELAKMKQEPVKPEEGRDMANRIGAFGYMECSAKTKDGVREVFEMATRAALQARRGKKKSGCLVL"}, "source": "paper PMC12756398", "target": "T1, GST-fused RA domain of ARAP1 (aa 1179-1262) (mouse) (UniProt Q4LDD4)", "T1 sequence": "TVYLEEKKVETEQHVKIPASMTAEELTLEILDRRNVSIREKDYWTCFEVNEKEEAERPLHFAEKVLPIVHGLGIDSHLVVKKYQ", "assay": "pull-down; GST, GST-RA or GST-RA-PH held on glutathione Sepharose 4B beads; lysates of 293T cells transfected with SNAP-tagged GTPases (1% Triton X-100, 0.1 M Tris-HCl pH 7.5, 0.1 M NaCl, 10 mM MgCl2); 4 °C, 1 h; immunoblotting; only the target purified", "note": "No constants are given. Whether binding was seen depends on the method and setting. Binding seen in cells or lysates may run through a third protein. Some entries that bind do so weakly or less than the wild type. Where a sequence is shown, tags or fusion partners need not be part of it."}
{"substance": "SNAP-tagged RhoA N19 (inactive form of RhoA) (from UniProt P61586 1-193)", "values": [{"measurement": "binding", "value": "binds"}]}
